Assay results published in ChEMBL document CHEMBL3351789, “Triazolopyridines as selective JAK1 inhibitors: from hit identification to GLPG0634” (J Med Chem, 2014).

Assay: Kinetic solubility of the compound at pH 7.4
Conditions: buffer

O=C(Nc1nc2cccc(-c3ccc(NS(=O)(=O)C4CC4)cc3)n2n1)C1CC1 showed a solubility kinetic greater than 80 µg/mL.
